# Screening data, single-dose tests

Source: ChEMBL document CHEMBL3988442, “University of Dundee, Small-Polar-MMV Screening Library” (2021).

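Whole-cell growth test on Mycobacterium tuberculosis, read after 4 days in a medium based on cholesterol and the lipid DPPC; the read-out is not stated. Concentration: 500 µM. Higher reads as more growth inhibition (inferred: compounds with an IC50 in retests scored well above the rest). Size under these conditions: about 18,000 compounds, about 900 of them at 50% or above in at least one test.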

Each number is a percent effect as filed. How 0% and 100% were set is not recorded. Most values in the screen are low, and negative values occur. This is an unselected part of the compounds tested.

Compound: OCc1cnc2c(F)cccc2c1
Percent Effect: 4.923

Compound: NC(c1ccccc1)C1(CO)CCOCC1 (stereo not shown)
Percent Effect: 11.35

Compound: CC(C)(CO)NCC(O)c1cccc(Cl)c1 (stereo not shown)
Percent Effect: 4.826

Compound: CCN1CCN(CCS(=O)(=O)c2ccccc2)CC1
Percent Effect: 23.39

Compound: CN(C)Cc1ccc(C(=O)NCC2(C)COC2)cc1
Percent Effect: 10.33

Compound: C[C@@H](N)C(=O)N(Cc1ccccc1F)C1CCC1
Percent Effect: 19.9

Compound: N#Cc1ccc(OCC(=O)Nc2ccccn2)cc1
Percent Effect: 73.33

Compound: CC(=O)N1CCC(CSc2n[nH]c(=O)n2C)CC1
Percent Effect: 5.224

Compound: Cc1nc(CN(C)C2CCNC2)no1 (stereo not shown)
Percent Effect: -7.974

Compound: CC(=O)NC(C)C(=O)N(C)Cc1ccsc1 (stereo not shown)
Percent Effect: -14.63

Compound: CCS(=O)(=O)CC(C)NC1CCN(C(C)C)CC1 (stereo not shown)
Percent Effect: -3.454

Compound: COC(=O)NC(C)C(=O)NCCCc1nc(C)cs1 (stereo not shown)
Percent Effect: -12.73

Compound: c1cncc(CC2CCNCC2)c1
Percent Effect: 5.162

Compound: NC1CCN(Cc2cscn2)CC1
Percent Effect: -19.88

Compound: CC(CNC(=O)c1ccc(Cl)cn1)Cn1ccnc1 (stereo not shown)
Percent Effect: -9.621

Compound: CC(C)(CO)NC1CC1
Percent Effect: -0.7618

Compound: CNC(=O)[C@@H](C)Nc1ccc(C(F)(F)F)cn1
Percent Effect: 1.99

Compound: C=C(C)CN1CCC(NC(=O)NCCS(C)(=O)=O)CC1
Percent Effect: 2.758

Compound: Cn1c(=O)[nH]c2ccc(F)cc21
Percent Effect: -2.434

Compound: O=C(NCc1ccccn1)c1n[nH]cc1I
Percent Effect: 25.92

Compound: CC1CN(C(=O)CC2CCC2)c2ccccc2C(=O)N1 (stereo not shown)
Percent Effect: 5.067

Compound: Clc1ccc2c(c1)CNCCO2
Percent Effect: 63.03

The last 3 entries again:

| Compound | Percent Effect |
|---|---|
| `O=C(NCc1ccccn1)c1n[nH]cc1I` | 25.92 |
| `CC1CN(C(=O)CC2CCC2)c2ccccc2C(=O)N1` (stereo not shown) | 5.067 |
| `Clc1ccc2c(c1)CNCCO2` | 63.03 |